The list shows a part of the results.
Tests used:
Test in all cases: log2 fold change, soluble protein after heating vs DMSO (PISA); higher = thermal stabilisation; K562 cells, 10 uM, 30 min; active = over 0.2 and 3.5 SD of the protein, either way, in both replicates (recomputed)
[1] = compound: C1=CC=C(C=C1)[C@H](COC2=CC3=C(C=C2)NC(=O)N3)NC(=O)C4=CC=CN(C4=O)CC5=CC(=C(C=C5)F)F
How it was run: (§1)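 Values are thermal stability changes relative to control samples and are taken from duplicates. They are stated as log2 fold changes. Before quantification by TMTpro 16plex LC-MS/MS with equalised channel sums, K562 cells at 2×10^6 cells/mL were treated with 10 μM compound for 30 min, heated in aliquots for 3 min across 48°C-58°C, pooled, extracted in PBS with 0.5% NP-40 at 4°C, and centrifuged at 21,000xg for 90 min to give the soluble supernatant.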

Protein sequences, listed by entry. Tags and fused reporters are not part of them. Lines headed by an entry give the natural chain unless they say otherwise; changes in a name come on top.
UniProt P56378: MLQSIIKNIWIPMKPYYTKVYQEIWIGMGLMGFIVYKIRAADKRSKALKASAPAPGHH
UniProt O95352: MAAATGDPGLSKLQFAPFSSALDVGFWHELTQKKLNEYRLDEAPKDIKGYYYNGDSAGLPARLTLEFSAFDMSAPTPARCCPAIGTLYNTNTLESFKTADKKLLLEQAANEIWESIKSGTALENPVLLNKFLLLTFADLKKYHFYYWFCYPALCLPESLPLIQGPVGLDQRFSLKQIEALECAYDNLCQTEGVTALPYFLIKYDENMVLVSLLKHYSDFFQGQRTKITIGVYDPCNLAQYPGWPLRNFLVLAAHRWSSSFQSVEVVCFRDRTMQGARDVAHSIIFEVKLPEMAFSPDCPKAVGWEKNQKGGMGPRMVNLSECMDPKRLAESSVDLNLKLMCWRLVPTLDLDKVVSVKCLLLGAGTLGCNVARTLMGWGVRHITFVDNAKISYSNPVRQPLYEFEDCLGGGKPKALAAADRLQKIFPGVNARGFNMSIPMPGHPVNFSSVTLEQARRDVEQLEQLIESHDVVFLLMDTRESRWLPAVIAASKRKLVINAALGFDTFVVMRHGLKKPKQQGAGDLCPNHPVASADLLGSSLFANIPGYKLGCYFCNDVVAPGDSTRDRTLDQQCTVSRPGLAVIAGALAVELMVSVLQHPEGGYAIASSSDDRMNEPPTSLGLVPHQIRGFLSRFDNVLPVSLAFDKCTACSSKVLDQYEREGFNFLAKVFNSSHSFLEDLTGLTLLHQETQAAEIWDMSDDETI
UniProt Q9H0Y0: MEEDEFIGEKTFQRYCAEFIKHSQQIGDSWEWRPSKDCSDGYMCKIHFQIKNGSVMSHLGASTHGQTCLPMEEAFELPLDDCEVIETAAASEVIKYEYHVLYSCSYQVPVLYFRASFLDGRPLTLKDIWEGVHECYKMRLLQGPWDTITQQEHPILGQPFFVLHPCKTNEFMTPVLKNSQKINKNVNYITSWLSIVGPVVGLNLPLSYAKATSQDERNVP
UniProt Q9Y5K8, whole entry, looked up: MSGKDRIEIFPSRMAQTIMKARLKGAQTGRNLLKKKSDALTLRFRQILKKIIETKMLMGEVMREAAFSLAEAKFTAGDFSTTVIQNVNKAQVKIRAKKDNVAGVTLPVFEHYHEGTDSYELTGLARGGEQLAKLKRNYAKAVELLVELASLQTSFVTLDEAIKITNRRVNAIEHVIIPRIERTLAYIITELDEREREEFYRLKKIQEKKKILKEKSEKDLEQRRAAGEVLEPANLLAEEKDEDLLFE
UniProt Q9Y4P1: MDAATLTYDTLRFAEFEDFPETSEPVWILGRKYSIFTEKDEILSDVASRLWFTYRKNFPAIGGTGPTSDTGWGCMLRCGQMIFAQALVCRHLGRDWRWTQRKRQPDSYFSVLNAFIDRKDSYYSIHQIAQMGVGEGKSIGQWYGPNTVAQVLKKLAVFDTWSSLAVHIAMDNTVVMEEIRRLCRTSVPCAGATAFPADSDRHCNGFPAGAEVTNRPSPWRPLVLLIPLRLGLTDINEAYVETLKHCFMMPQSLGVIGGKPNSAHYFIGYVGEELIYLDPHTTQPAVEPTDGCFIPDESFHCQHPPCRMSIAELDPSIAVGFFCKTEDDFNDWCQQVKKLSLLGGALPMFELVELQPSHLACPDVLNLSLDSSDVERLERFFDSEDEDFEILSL
UniProt O75143: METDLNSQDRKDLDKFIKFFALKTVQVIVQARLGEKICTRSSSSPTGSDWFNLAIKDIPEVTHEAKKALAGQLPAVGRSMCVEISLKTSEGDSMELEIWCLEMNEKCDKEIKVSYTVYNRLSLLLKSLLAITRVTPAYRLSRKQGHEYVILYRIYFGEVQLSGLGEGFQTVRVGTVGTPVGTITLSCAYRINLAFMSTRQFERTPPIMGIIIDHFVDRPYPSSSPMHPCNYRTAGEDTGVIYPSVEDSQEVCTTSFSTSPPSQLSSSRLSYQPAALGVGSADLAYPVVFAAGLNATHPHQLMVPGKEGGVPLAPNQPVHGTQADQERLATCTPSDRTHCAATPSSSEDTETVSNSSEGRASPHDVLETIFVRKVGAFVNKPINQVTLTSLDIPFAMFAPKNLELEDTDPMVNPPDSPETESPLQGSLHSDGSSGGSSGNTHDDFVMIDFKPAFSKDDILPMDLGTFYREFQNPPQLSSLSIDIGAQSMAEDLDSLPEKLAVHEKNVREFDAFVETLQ

[2] = compound: CC1=C(SC2=C1C(=N[C@H](C3=NN=C(N32)C)CC(=O)N)C4=CC=C(C=C4)Cl)C
How it was run: as §1

[3] = compound: CC1=C2C(=CC=C1)N=C(N(C2=O)C3=CC=CC=C3C)CN4C=NC5=C(N=CN=C54)N
How it was run: as §1

[4] = compound: Cc1sc2c(c1C)C(c1ccc(Cl)cc1)=N[C@@H](CC(=O)OC(C)(C)C)c1nnc(C)n1-2
How it was run: as §1

[5] = compound: c1ccc([C@@H]2C[C@H]2NC2CCNCC2)cc1
How it was run: as §1

Measured: log2 fold change

ATP5MPL (UniProt P56378)
inactive: [1] 0.025 | [2] 0.088 | [3] 0.044 | [4] -0.078 | [5] 0.06

ATG7 (UniProt O95352)
inactive: [1] -0.062 | [2] 0.039 | [3] 0.01 | [4] -0.022 | [5] -0.045

ATG10 (UniProt Q9H0Y0)
inactive: [1] 0.101 | [3] 0.251 | [4] -0.217

ATP5F1B (UniProt F8W0P7)
inactive: [1] 0.275 | [4] 0.04

ATP5F1B (UniProt H0YI37)
inactive: [1] 0.176 | [3] 0.311

ATP6V1D (UniProt Q9Y5K8)
inactive: [1] 0.013 | [2] -0.008 | [3] -0.013 | [4] -0.036 | [5] 0.002

ATG4B isoform 2 (UniProt Q9Y4P1)
inactive: [1] -0.079 | [2] 0.056 | [3] 0.166 | [4] 0.188 | [5] 0.07

ATG13 isoform 5 (UniProt O75143)
inactive: [1] -0.012 | [2] 0.064 | [3] -0.007 | [4] 0.01 | [5] 0.061

2 neighbouring records from above, quoted:
ATP5F1B (UniProt H0YI37)
inactive: [1] 0.176 | [3] 0.311

ATP6V1D (UniProt Q9Y5K8)
inactive: [1] 0.013 | [2] -0.008 | [3] -0.013 | [4] -0.036 | [5] 0.002
